This experiment addresses hnRNPU (human (endogenous in HCT116 and FHC)) (UniProt Q00839). The experiment can be described thus: co-IP; HCT116 nucleoprotein extracts treated with RNase; precipitated with antibody to hnRNPK (or to hnRNPU) or IgG, protein-A/G Sepharose beads, 4°C; partners detected by western blot. On the technique in general: Immunoblotting shows a protein as a band on a membrane.

Results are given in words; binding and its absence hold for the method and conditions named. In cells and extracts the contact can be indirect. Some entries that bind do so weakly or less than the wild type.

As to hnRNPK (from UniProt P61978 1-463), the binding result is recorded as “binds”.

The values above are taken from article PMC9301189.
